# Measured values published in the supplement of paper PMC10849652.
# By UniProt entry, the sequences of proteins in these tests, tags left out. Where a name states a change or a piece, a line headed by the entry shows the natural chain unless it says otherwise.
# UniProt P55957: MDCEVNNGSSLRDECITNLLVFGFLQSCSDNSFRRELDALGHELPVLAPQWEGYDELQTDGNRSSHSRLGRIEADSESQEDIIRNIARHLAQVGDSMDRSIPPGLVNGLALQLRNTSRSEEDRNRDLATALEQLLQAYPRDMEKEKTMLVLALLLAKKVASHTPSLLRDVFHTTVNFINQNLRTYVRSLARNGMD
# UniProt Q92560: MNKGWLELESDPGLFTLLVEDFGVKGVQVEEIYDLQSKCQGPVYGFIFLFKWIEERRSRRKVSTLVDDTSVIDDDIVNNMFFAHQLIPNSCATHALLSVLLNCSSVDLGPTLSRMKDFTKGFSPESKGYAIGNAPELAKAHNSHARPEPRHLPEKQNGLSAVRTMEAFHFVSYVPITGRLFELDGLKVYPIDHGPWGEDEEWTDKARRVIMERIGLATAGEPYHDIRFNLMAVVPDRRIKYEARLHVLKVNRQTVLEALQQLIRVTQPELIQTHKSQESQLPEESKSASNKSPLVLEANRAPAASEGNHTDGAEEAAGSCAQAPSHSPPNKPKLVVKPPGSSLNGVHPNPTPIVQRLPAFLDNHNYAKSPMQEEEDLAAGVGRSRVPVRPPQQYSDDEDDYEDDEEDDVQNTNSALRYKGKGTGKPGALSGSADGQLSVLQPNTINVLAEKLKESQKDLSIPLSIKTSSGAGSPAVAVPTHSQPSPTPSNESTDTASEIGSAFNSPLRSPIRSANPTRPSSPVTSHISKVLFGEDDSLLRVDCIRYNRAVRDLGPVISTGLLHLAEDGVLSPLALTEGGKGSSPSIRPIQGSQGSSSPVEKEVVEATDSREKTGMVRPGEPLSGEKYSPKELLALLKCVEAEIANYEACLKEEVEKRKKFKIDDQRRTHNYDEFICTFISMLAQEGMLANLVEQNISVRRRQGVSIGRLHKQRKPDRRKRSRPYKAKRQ
# UniProt Q9P287, whole entry, looked up: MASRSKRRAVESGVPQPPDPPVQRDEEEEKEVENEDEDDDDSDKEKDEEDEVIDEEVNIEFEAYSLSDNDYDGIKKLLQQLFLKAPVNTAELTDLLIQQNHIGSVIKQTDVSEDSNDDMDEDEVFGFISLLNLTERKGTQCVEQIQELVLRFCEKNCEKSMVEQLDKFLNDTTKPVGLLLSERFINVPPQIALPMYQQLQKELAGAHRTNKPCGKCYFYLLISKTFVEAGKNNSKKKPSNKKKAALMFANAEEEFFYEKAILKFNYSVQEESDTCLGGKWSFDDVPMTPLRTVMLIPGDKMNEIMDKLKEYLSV
# UniProt Q9BXK5, whole entry, looked up: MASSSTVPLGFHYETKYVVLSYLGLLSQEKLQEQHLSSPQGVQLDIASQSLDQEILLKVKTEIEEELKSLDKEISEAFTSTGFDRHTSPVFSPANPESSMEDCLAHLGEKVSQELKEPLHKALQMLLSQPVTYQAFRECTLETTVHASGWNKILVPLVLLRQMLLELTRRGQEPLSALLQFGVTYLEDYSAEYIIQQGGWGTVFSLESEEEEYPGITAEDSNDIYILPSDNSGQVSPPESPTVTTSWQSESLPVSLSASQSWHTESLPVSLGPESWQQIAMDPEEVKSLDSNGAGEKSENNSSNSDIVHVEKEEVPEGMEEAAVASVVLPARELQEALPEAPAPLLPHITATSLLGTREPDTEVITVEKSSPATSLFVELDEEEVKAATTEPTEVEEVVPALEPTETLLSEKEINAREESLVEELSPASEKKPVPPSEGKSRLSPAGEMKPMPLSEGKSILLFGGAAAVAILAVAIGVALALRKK
# UniProt Q8WUW1: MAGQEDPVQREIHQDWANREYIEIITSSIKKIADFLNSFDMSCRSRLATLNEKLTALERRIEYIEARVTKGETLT
# UniProt Q9NPI1: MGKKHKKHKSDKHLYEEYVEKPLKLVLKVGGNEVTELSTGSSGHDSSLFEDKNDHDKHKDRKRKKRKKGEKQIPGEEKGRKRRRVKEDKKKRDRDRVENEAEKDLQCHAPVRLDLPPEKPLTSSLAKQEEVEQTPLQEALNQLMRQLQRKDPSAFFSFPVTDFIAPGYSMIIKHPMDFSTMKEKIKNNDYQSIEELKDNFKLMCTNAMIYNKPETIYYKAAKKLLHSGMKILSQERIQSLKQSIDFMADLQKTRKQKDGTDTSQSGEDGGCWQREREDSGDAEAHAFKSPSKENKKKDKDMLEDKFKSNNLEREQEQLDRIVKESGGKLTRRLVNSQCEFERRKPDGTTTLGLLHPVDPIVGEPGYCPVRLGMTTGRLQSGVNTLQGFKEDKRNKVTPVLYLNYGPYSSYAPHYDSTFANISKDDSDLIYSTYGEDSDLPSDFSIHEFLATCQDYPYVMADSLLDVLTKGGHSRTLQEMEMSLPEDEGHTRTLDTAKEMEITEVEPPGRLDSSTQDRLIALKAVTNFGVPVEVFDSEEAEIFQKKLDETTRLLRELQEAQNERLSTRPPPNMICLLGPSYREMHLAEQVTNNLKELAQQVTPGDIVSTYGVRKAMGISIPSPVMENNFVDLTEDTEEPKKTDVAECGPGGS
# UniProt Q96KE9: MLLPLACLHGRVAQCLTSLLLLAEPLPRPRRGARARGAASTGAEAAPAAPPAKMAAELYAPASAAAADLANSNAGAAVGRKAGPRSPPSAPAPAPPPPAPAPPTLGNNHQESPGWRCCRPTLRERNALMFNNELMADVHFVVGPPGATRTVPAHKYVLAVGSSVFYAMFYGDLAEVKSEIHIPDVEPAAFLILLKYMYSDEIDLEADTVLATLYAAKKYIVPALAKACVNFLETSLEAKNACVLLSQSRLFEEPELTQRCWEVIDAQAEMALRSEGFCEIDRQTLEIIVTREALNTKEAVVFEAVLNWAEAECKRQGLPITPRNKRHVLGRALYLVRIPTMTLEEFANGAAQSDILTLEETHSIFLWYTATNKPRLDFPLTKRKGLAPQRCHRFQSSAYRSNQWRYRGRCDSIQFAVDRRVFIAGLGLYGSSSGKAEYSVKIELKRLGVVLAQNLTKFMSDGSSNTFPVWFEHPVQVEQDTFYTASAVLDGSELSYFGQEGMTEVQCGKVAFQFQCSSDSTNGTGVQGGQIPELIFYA
# UniProt O95816: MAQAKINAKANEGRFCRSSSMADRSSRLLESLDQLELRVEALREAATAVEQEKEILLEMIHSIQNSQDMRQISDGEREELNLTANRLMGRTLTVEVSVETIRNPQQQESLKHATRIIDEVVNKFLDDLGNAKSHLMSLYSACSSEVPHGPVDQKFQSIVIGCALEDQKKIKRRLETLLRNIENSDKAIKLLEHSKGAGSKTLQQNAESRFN
# UniProt O95429: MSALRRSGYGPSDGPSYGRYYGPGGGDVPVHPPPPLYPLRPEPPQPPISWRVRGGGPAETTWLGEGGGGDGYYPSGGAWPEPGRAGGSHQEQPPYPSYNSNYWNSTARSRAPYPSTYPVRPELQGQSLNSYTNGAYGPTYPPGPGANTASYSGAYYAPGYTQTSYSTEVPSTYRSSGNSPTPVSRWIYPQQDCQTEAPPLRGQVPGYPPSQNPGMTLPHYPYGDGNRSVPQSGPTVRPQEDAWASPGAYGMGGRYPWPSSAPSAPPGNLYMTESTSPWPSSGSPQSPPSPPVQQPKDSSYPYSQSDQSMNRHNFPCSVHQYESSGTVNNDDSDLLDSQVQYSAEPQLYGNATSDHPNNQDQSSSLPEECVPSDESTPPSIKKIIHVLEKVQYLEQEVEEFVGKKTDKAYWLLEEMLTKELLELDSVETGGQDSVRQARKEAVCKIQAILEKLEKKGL
# UniProt Q96G01: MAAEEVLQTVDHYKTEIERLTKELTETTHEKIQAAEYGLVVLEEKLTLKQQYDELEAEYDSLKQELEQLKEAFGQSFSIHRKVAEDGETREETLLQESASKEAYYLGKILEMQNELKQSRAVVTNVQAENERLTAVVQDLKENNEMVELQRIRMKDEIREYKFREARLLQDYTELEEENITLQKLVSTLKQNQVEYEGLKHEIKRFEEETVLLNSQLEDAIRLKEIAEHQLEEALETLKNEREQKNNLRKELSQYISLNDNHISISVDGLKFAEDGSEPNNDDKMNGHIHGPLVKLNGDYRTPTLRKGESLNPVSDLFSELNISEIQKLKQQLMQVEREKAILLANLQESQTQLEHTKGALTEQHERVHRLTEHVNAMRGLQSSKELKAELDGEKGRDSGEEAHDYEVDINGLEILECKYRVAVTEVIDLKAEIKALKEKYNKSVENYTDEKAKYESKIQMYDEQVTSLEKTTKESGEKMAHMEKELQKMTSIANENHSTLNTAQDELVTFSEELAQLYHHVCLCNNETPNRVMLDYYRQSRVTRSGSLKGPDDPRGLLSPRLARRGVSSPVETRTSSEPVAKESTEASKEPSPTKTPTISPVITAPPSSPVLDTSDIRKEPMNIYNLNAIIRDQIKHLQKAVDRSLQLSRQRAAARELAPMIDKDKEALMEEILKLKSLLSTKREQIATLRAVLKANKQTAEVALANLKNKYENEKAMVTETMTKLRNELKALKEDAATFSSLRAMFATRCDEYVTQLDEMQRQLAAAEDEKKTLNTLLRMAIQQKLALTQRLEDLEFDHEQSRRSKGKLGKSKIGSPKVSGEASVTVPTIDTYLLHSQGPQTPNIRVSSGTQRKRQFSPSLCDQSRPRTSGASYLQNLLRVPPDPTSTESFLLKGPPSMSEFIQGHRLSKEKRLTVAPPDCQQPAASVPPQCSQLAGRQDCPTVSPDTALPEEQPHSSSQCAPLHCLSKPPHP
# UniProt P35613: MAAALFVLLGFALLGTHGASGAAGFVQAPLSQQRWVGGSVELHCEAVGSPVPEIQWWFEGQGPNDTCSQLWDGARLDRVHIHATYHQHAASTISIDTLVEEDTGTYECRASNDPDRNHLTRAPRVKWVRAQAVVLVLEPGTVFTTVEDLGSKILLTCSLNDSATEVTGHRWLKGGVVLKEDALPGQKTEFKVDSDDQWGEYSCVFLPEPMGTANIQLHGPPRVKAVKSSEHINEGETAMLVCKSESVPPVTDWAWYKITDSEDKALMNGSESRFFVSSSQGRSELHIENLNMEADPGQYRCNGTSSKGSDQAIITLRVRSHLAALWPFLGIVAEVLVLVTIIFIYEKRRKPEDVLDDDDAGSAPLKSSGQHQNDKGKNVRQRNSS
# UniProt P11274: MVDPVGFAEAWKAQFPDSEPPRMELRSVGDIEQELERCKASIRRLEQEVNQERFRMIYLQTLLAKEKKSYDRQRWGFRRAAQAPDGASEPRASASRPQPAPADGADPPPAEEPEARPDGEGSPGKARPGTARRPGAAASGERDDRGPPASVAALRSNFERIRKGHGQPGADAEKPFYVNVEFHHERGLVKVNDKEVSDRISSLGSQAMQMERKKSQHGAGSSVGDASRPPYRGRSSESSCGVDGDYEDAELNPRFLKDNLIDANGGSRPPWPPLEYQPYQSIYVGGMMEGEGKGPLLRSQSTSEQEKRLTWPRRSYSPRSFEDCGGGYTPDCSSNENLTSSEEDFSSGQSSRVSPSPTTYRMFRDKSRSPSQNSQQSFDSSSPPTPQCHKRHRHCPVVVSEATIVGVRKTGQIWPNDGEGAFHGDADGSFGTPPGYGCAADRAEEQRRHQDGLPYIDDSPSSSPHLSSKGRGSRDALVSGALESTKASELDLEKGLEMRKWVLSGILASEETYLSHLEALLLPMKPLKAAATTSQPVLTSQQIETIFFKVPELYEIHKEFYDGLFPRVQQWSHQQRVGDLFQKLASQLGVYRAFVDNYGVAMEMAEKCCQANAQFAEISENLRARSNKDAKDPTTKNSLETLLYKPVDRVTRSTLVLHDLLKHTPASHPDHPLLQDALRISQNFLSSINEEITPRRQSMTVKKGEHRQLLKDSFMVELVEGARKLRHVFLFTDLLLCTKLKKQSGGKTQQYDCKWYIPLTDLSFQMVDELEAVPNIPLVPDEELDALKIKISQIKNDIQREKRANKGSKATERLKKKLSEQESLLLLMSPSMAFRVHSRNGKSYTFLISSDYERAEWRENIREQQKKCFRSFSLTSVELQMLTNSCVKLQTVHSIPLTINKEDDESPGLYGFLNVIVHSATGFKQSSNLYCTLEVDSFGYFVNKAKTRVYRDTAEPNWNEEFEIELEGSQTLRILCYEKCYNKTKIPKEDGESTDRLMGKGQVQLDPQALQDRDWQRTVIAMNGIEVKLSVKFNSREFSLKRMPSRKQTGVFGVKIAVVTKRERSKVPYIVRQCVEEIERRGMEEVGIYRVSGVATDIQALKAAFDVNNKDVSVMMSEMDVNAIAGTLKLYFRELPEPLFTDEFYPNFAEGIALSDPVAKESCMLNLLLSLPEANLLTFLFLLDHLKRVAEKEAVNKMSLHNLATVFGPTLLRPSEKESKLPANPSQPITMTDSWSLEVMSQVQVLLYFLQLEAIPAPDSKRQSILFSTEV
# This is one part of the list.
# What was measured:
# Assay in all cases: log2 fold change, soluble protein after heating vs DMSO (PISA); higher = thermal stabilisation; K562 lysate, 10 uM; active = over 0.2 and 3.5 SD of the protein, either way, in both replicates (recomputed)
# ibrutinib = compound: C=CC(=O)N1CCC[C@@H](n2nc(-c3ccc(Oc4ccccc4)cc3)c3c(N)ncnc32)C1 [ibrutinib]
# Summary of the method: (§1)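 To prepare the extract, K562 pellets were dounce-homogenised in PBS pH 7.4 with 1 mM MgCl2, giving crude material at 1 mg/mL protein. This was treated with 10 μM compound for 30 min, then heated in aliquots for 3 min over 48°C-58°C before pooling and addition of NP-40 to 0.5% at 4°C. Centrifugation at 21,000xg for 90 min left soluble protein in the supernatant, which TMTpro 16plex LC-MS/MS quantified with equalised channel sums. Results are log-two fold changes in thermal stability compared with solvent controls, from duplicates.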
# [1] = compound: CC(=O)c1cnc2ccc(-c3cc(Cl)c(O)c(Cl)c3)nc2c1N[C@H]1CC[C@H](CN(C)C)CC1
# Summary of the method: as §1
# ralimetinib = compound: CC(C)(C)Cn1c(N)nc2ccc(-c3[nH]c(C(C)(C)C)nc3-c3ccc(F)cc3)nc21 [ralimetinib]
# Summary of the method: as §1
# [2] = compound: CC(C)(O)CC(=O)NCCn1ccc2ncnc(Nc3ccc(Oc4cccc(C(F)(F)F)c4)c(Cl)c3)c21
# Summary of the method: as §1
# [3] = compound: CC(C)C1=C2N=C(C=C(N2N=C1)NCC3=CC=CC=C3)NCCCCCCN
# Summary of the method: as §1
# [4] = compound: CC1=C(C(CC(=O)N1)C2=CC=C(C=C2)C(F)(F)F)C(=O)NC3=C(C=C4C(=C3)C=NN4)F
# Summary of the method: as §1
# [5] = compound: CC1=C(C2=C(C=C1)C(=O)C3=CC=CC=C3N2CCCN)C
# Summary of the method: as §1
# [6] = compound: CC1=C(C=C(C=C1)NC(=O)C2=CC(=CC=C2)C(C)(C)C#N)NC3=CC4=C(C=C3)N=CN(C4=O)C
# Summary of the method: as §1
# [7] = compound: CC1=C(C=C(C=C1)NC(=O)C2=CC(=CC=C2)N(C)C)NC(=O)C3=CC=C(C=C3)O
# Summary of the method: as §1
# [8] = compound: CC1=CC=C(C=C1)SC2=C3C=C(SC3=CN=C2)C(=O)N
# Summary of the method: as §1
Target,log2 fold change (ibrutinib),log2 fold change [1],log2 fold change (ralimetinib),log2 fold change [2],log2 fold change [3],log2 fold change [4],log2 fold change [5],log2 fold change [6],log2 fold change [7],log2 fold change [8]
BID isoform 2 (UniProt P55957),inactive: 0.132,inactive: -0.006,inactive: 0.008,inactive: -0.035,inactive: -0.014,inactive: 0,inactive: -0.078,inactive: 0.031,inactive: 0.006,inactive: -0.013
BMP2K (UniProt Q9NSY1),inactive: -0.005,inactive: 0.675,inactive: -0.003,inactive: -0.055,inactive: -0.005,inactive: -0.01,inactive: -0.033,inactive: -0.021,inactive: 0.004,inactive: 0.082
BCL7C isoform 2 (UniProt Q8WUZ0),inactive: 0.031,inactive: 0.048,inactive: 0.04,inactive: 0.048,inactive: -0.033,inactive: 0.061,inactive: -0.063,inactive: -0.042,inactive: 0.05,inactive: 0.023
BABAM2 (UniProt Q9NXR7),inactive: 0.017,inactive: -0.009,inactive: 0.005,inactive: -0.011,inactive: -0.036,inactive: -0.001,inactive: 0.013,inactive: 0.003,inactive: -0.011,inactive: -0.003
BAP1 (UniProt Q92560),inactive: 0.016,inactive: 0.013,inactive: 0.031,inactive: -0.003,inactive: 0.004,inactive: 0.057,inactive: -0.015,inactive: 0.035,inactive: -0.002,inactive: 0.01
BCCIP (UniProt Q9P287),inactive: 0.005,inactive: 0,inactive: 0.014,inactive: 0.04,inactive: -0.027,inactive: -0.008,inactive: -0.02,inactive: -0.084,inactive: 0.017,inactive: -0.006
BAX isoform 2 (UniProt Q07812),inactive: -0.019,inactive: -0.037,inactive: -0.013,inactive: -0.031,inactive: -0.027,inactive: 0.054,inactive: -0.01,inactive: 0.011,inactive: 0.028,inactive: 0.02
BET1L (UniProt Q9NYM9),inactive: 0.224,inactive: 0.022,inactive: 0.034,inactive: 0.047,inactive: -0.124,inactive: -0.065,inactive: 0.009,inactive: -0.03,inactive: -0.014,inactive: 0.184
BAG6 isoform 3 (UniProt P46379),inactive: 0.029,inactive: 0.003,inactive: 0.026,inactive: -0.045,inactive: -0.006,inactive: 0.02,inactive: 0.015,inactive: -0.006,inactive: 0.009,inactive: -0.005
BCL7A isoform 2 (UniProt Q4VC05),inactive: 0.036,inactive: -0.03,inactive: -0.01,inactive: 0.045,inactive: -0.076,inactive: 0.005,inactive: 0.015,inactive: -0.048,inactive: 0.016,inactive: -0.041
BBC3 (UniProt Q9BXH1),inactive: 0.038,inactive: 0.016,inactive: 0.162,inactive: 0.126,inactive: -0.026,,inactive: 0.191,inactive: -0.025,inactive: 0.006,inactive: -0.072
BCL2L13 (UniProt Q9BXK5),inactive: -0.004,inactive: -0.028,inactive: -0.011,inactive: -0.059,inactive: -0.02,inactive: -0.001,inactive: 0.003,inactive: -0.002,inactive: 0.016,inactive: -0.039
BIRC2 (UniProt Q13490),inactive: 0.019,inactive: 0.002,inactive: 0.008,inactive: -0.023,inactive: 0.002,inactive: -0.007,inactive: 0.021,inactive: -0.009,inactive: -0.026,inactive: -0.013
BTF3 (UniProt P20290),inactive: 0,inactive: 0.014,inactive: -0.002,inactive: -0.009,inactive: 0.003,inactive: -0.001,inactive: 0.039,inactive: -0.025,inactive: -0.015,inactive: -0.012
BRK1 isoform 2 (UniProt Q8WUW1),inactive: 0.087,inactive: -0.083,inactive: 0.001,inactive: 0.03,inactive: -0.039,inactive: -0.028,inactive: -0.008,inactive: -0.076,inactive: -0.048,inactive: 0.031
BRD7 isoform 2 (UniProt Q9NPI1),inactive: 0.043,inactive: 0.008,inactive: 0.017,inactive: -0.092,inactive: 0.088,inactive: 0.26,inactive: -0.119,inactive: -0.017,inactive: 0.039,inactive: 0.021
BCKDK (UniProt O14874),inactive: 0.048,inactive: 0.049,inactive: 0.137,inactive: -0.017,inactive: -0.001,inactive: -0.048,inactive: 0.004,inactive: -0.088,inactive: 0.067,inactive: 0.059
BPNT1 (UniProt O95861),inactive: -0.001,inactive: -0.025,inactive: 0.01,inactive: 0.018,inactive: -0.029,inactive: -0.064,inactive: 0.002,inactive: 0.045,inactive: -0.038,inactive: 0.008
BTBD6 (UniProt Q96KE9),inactive: -0.011,inactive: -0.208,inactive: -0.143,inactive: -0.292,inactive: 0.035,inactive: -0.132,inactive: -0.149,inactive: 0.416,inactive: 0.03,inactive: -0.173
BAG2 (UniProt O95816),inactive: -0.052,inactive: 0.003,inactive: 0.015,inactive: 0.017,inactive: 0.007,inactive: -0.03,inactive: 0.018,inactive: 0.007,inactive: -0.011,inactive: -0.007
BAG4 (UniProt O95429),inactive: 0.082,inactive: 0.005,inactive: -0.009,inactive: 0.02,inactive: -0.035,inactive: -0.014,inactive: 0,active: -0.375,inactive: -0.021,inactive: -0.017
BSDC1 (UniProt Q9NW68),inactive: 0.048,inactive: 0.008,inactive: -0.004,inactive: -0.023,inactive: 0.062,inactive: 0.038,inactive: 0.01,inactive: 0.022,inactive: -0.047,inactive: 0.011
BICD1 (UniProt Q96G01),inactive: 0.012,inactive: 0.01,inactive: -0.015,inactive: -0.017,inactive: 0.003,inactive: 0.029,inactive: -0.025,inactive: -0.018,inactive: 0.028,inactive: 0.027
BSG (UniProt P35613),inactive: -0.029,inactive: 0.055,inactive: 0.02,inactive: 0.036,inactive: -0.013,inactive: 0.018,inactive: -0.012,inactive: -0.016,inactive: 0.019,inactive: 0.028
BCR (UniProt P11274),inactive: -0.026,inactive: 0.037,inactive: 0.025,inactive: -0.025,inactive: 0.014,inactive: -0.001,inactive: -0.032,inactive: 0.025,inactive: 0,inactive: 0.017
BCL7B (UniProt Q9BQE9),inactive: -0.304,inactive: -0.044,inactive: 0.039,inactive: 0.033,inactive: -0.056,inactive: 0.101,inactive: -0.029,inactive: -0.038,inactive: 0.013,inactive: -0.057
BLOC1S3 (UniProt Q6QNY0),inactive: 0.065,inactive: -0.004,inactive: -0.006,inactive: -0.05,inactive: 0.013,inactive: -0.026,inactive: -0.026,inactive: -0.008,inactive: -0.043,inactive: -0.015

# Rewritten with bars between the fields: entries from further up
Target | log2 fold change (ibrutinib) | log2 fold change [1] | log2 fold change (ralimetinib) | log2 fold change [2] | log2 fold change [3] | log2 fold change [4] | log2 fold change [5] | log2 fold change [6] | log2 fold change [7] | log2 fold change [8]
BBC3 (UniProt Q9BXH1) | inactive: 0.038 | inactive: 0.016 | inactive: 0.162 | inactive: 0.126 | inactive: -0.026 |  | inactive: 0.191 | inactive: -0.025 | inactive: 0.006 | inactive: -0.072
BTBD6 (UniProt Q96KE9) | inactive: -0.011 | inactive: -0.208 | inactive: -0.143 | inactive: -0.292 | inactive: 0.035 | inactive: -0.132 | inactive: -0.149 | inactive: 0.416 | inactive: 0.03 | inactive: -0.173
